Measured values published in the supplement of paper PMC3334620.
The full ranking holds about 33,000 sequences; the median of “E-score (-0.5 to 0.5)” is about -8e-05, and the highest 2% start at about 0.23. The list shows a part of the results.

The sequences below were run against T1, Nrg2 (UniProt P38082) (assay: PBM E-score (8-mer binding enrichment) (E-score (-0.5 to 0.5)); higher = stronger / more preferred TF binding). Settings: protein concentration: 100 nM; construct: GST-full length.
T1 sequence: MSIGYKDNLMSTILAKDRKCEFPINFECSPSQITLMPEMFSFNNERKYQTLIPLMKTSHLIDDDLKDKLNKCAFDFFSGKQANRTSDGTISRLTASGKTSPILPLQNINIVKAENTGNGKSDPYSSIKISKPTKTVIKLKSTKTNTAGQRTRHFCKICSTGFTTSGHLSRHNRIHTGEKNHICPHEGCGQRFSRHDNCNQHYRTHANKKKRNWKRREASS
In short: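 Yeast transcription factors, full-length or as DNA-binding domains, were expressed with a GST tag using PURExpress in vitro transcription/translation. At about 100-200 nM they were applied to universal all-10-mer Agilent arrays, double-stranded by primer extension on fresh or once-stripped slides. Fluorescent anti-GST detected bound protein, and masliner normalised the scans. E-scores for ungapped eight-base words, pooled with reverse complements, came from the Universal PBM Analysis Suite.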
With CTTCGATC the “PBM E-score” value was -0.00647. For CATGGCCG, the “PBM E-score” value was 0.258. With CACAACGG the “PBM E-score” value was 0.102. GATCCGTA was tested, and the “PBM E-score” value was -0.155. For CCTTGAGC, the “PBM E-score” value was 0.0449. With ATGGAAGG the “PBM E-score” value was -0.214. For CAAGAATA, the “PBM E-score” value was 0.123. ATCTACGC was tested, and the “PBM E-score” value was 0.226. With TAAAAGAA the “PBM E-score” value was 0.0181. In the case of TGGTAGAA, the “PBM E-score” value is reported as -0.19. With CAGGCGGG the “PBM E-score” value was -0.0776. CCCTACCG was tested, and the “PBM E-score” value was -0.116. For CATACTGC, the “PBM E-score” value was 0.0795. CGGTAACC was tested, and the “PBM E-score” value was -0.112. For AGTGGCAC, the “PBM E-score” value was -0.0847. In the case of ACCGCTCC, the “PBM E-score” value is reported as -0.0686. For ACAGTCAT, the “PBM E-score” value was -0.0898. For AACAGTCA, the “PBM E-score” value was -0.014. For ATGAAGAG, the “PBM E-score” value was 0.00699. For GTTCAAAC, the “PBM E-score” value was 0.194. CTTCGAAA was tested, and the “PBM E-score” value was -0.169. For AAGTGAGG, the “PBM E-score” value was -0.151. ATGACTCA was tested, and the “PBM E-score” value was -0.00717. With CCATGCCC the “PBM E-score” value was -0.111. For CTCACGCA, the “PBM E-score” value was 0.353. With CCTGGATC the “PBM E-score” value was 0.0126. CTGCGCAG was tested, and the “PBM E-score” value was 0.0344. ATCTTCTC was tested, and the “PBM E-score” value was 0.0597. In the case of CGAACCTA, the “PBM E-score” value is reported as -0.141. For ACCCGCAA, the “PBM E-score” value was -0.159. For ACTTGTTA, the “PBM E-score” value was 0.124. For ATTATAAC, the “PBM E-score” value was -0.0156. With CTGGGCCA the “PBM E-score” value was -0.209. AGGAGTCG was tested, and the “PBM E-score” value was -0.125. GCGACTGA was tested, and the “PBM E-score” value was -0.118. GTGTTAGA was tested, and the “PBM E-score” value was 0.0335. For AAATCTAG, the “PBM E-score” value was -0.0302. In the case of ATGCCAAC, the “PBM E-score” value is reported as 0.103. With CAACGATA the “PBM E-score” value was 0.0152. With CAGCACAG the “PBM E-score” value was 0.158. AGATCCGC was tested, and the “PBM E-score” value was 0.0351. In the case of TCAGGCGA, the “PBM E-score” value is reported as -0.0146. ATTAGTGC was tested, and the “PBM E-score” value was 0.23. GCTGGCAA was tested, and the “PBM E-score” value was 0.132. GAACAATA was tested, and the “PBM E-score” value was 0.277. With AATAGGGA the “PBM E-score” value was 0.0503. With CACAGCGG the “PBM E-score” value was -0.0638. With CAGAAGAG the “PBM E-score” value was -0.143. For ACTATCTA, the “PBM E-score” value was 0.132. With ATTCCGTG the “PBM E-score” value was 0.126. In the case of GAGAAGAC, the “PBM E-score” value is reported as -0.0478. For AGGAAGAT, the “PBM E-score” value was 0.0139. For AAATTTGT, the “PBM E-score” value was 0.121. With CCGTCGCG the “PBM E-score” value was -0.0239. GGTGTTTA was tested, and the “PBM E-score” value was 0.0473. In the case of CAGCCTCG, the “PBM E-score” value is reported as -0.0527. With GAGCAAGA the “PBM E-score” value was -0.00443. For GTTCGGGA, the “PBM E-score” value was 0.101. For CCGAGAGG, the “PBM E-score” value was -0.122. AGAATGTG was tested, and the “PBM E-score” value was 0.0423. In the case of CCTGCCCG, the “PBM E-score” value is reported as -0.0397. GTGAGATA was tested, and the “PBM E-score” value was 0.102. With CTTTACCA the “PBM E-score” value was -0.131. In the case of CCGTGCCG, the “PBM E-score” value is reported as -0.129. In the case of CCACGAAG, the “PBM E-score” value is reported as -0.0617. In the case of ATCCGAGC, the “PBM E-score” value is reported as -0.0814. CACGCCAG was tested, and the “PBM E-score” value was -0.0203. AGACTAAA was tested, and the “PBM E-score” value was 0.0838. CGTACAAA was tested, and the “PBM E-score” value was 0.0465. In the case of ATGTTTAC, the “PBM E-score” value is reported as 0.0676. With CACGTCAG the “PBM E-score” value was -0.0637. In the case of ATAACTAA, the “PBM E-score” value is reported as 0.0389. In the case of ACTGGTCC, the “PBM E-score” value is reported as -0.138. In the case of CGTAGGAG, the “PBM E-score” value is reported as -0.133. In the case of GGAGGTGA, the “PBM E-score” value is reported as -0.0454. TCCATCAA was tested, and the “PBM E-score” value was 0.126. AAACCTTG was tested, and the “PBM E-score” value was -0.0667. With GGCATTAA the “PBM E-score” value was -0.00455. In the case of GGCTGCAC, the “PBM E-score” value is reported as -0.0293. With GATGCTTA the “PBM E-score” value was -0.132. AGTCAACC was tested, and the “PBM E-score” value was -0.00933. In the case of GCGCAGAA, the “PBM E-score” value is reported as 0.248. For AAGTATCT, the “PBM E-score” value was 0.0414. With CGCTCAAC the “PBM E-score” value was -0.0545. In the case of AGCAGGAT, the “PBM E-score” value is reported as -0.00267. ACCCCCGC was tested, and the “PBM E-score” value was -0.239. ACATTCGA was tested, and the “PBM E-score” value was -0.0286. In the case of ATAATAAT, the “PBM E-score” value is reported as 0.056. With GTTGGGAA the “PBM E-score” value was 0.0635. GAACAGAC was tested, and the “PBM E-score” value was -0.0624. In the case of AGCCGGGC, the “PBM E-score” value is reported as -0.233. GGGATATA was tested, and the “PBM E-score” value was 0.091. In the case of GAGCAGGC, the “PBM E-score” value is reported as -0.161. For TAGGCCAA, the “PBM E-score” value was -0.0144. For ATCATAAG, the “PBM E-score” value was -0.085. For AGCCCCGA, the “PBM E-score” value was -0.0985. With ATTCGATC the “PBM E-score” value was 0.0271. In the case of ACTGAAGT, the “PBM E-score” value is reported as 0.0752. GACAGGCA was tested, and the “PBM E-score” value was -0.0795. For GTGGGTAA, the “PBM E-score” value was -0.0326. In the case of CACGCGCC, the “PBM E-score” value is reported as 0.00626. In the case of CGGTGTAA, the “PBM E-score” value is reported as -0.21. In the case of AAAGTATT, the “PBM E-score” value is reported as 0.0932. For GGTATAGA, the “PBM E-score” value was -0.0387. With TTATGGAA the “PBM E-score” value was 0.063. In the case of GTCAGAGA, the “PBM E-score” value is reported as -0.0898. ATGCAAAC was tested, and the “PBM E-score” value was 0.14. In the case of ATTGACGA, the “PBM E-score” value is reported as 0.0238. ACTTTTAC was tested, and the “PBM E-score” value was 0.163. With CAGCCTGA the “PBM E-score” value was -0.0362. In the case of CCCATAAA, the “PBM E-score” value is reported as -0.0549. ACAGGAGT was tested, and the “PBM E-score” value was -0.0584. AGCACGGC was tested, and the “PBM E-score” value was 0.0263. With ACTTAGAA the “PBM E-score” value was -0.136. ATCCAATC was tested, and the “PBM E-score” value was 0.0524. In the case of GAGTCCCC, the “PBM E-score” value is reported as -0.0963. TACGCTGA was tested, and the “PBM E-score” value was 0.152. For AGAAATAA, the “PBM E-score” value was 0.206. GCCATAGA was tested, and the “PBM E-score” value was 0.032. In the case of AATGGTGA, the “PBM E-score” value is reported as 0.00084. For CGGGCTGA, the “PBM E-score” value was -0.151. For AGACTTAA, the “PBM E-score” value was -0.173. In the case of CGGCGAAA, the “PBM E-score” value is reported as 0.101. With AATCTTAA the “PBM E-score” value was 0.0405. AATAAATG was tested, and the “PBM E-score” value was 0.158. For AAACAATG, the “PBM E-score” value was 0.0814. For ATCCGGAG, the “PBM E-score” value was 0.0282. With CGCCTGTA the “PBM E-score” value was -0.0188. In the case of CATGTCTA, the “PBM E-score” value is reported as -0.0383. AGAAGTCG was tested, and the “PBM E-score” value was -0.0691. With GTGGGCTA the “PBM E-score” value was -0.14. With CCCACCGG the “PBM E-score” value was -0.314. In the case of GTGGATGA, the “PBM E-score” value is reported as 0.108. For ACATGCAT, the “PBM E-score” value was 0.046. For CAAGTTCC, the “PBM E-score” value was -0.0773. With AGATAGAG the “PBM E-score” value was 0.128. GAACCAGA was tested, and the “PBM E-score” value was -0.0744. GGCCCCGA was tested, and the “PBM E-score” value was 0.0348. In the case of ACTGTAAC, the “PBM E-score” value is reported as 0.0921. For CAGTTGAA, the “PBM E-score” value was 0.0235. For ACGCATCA, the “PBM E-score” value was 0.0761. With CGGTCAAG the “PBM E-score” value was -0.0764. AAGTAGCG was tested, and the “PBM E-score” value was -0.0441. ATGGCACC was tested, and the “PBM E-score” value was -0.102. With CGCGTTGC the “PBM E-score” value was 0.18. CTTGACCA was tested, and the “PBM E-score” value was -0.1. In the case of AGTTTTAC, the “PBM E-score” value is reported as 0.0462. CGGGTGCC was tested, and the “PBM E-score” value was -0.111. For GGGGGTCA, the “PBM E-score” value was -0.381. With AGAATTCG the “PBM E-score” value was 0.06. With TGTTTGAA the “PBM E-score” value was -0.00474. With ACGTGGTG the “PBM E-score” value was -0.139. For CGGCTAAA, the “PBM E-score” value was 0.0274. For GACGCGTC, the “PBM E-score” value was 0.00341. In the case of CCTAACGA, the “PBM E-score” value is reported as -0.038. With AACATGCG the “PBM E-score” value was 0.101. In the case of CTCCCCGC, the “PBM E-score” value is reported as 0.139. In the case of AGGAAGTA, the “PBM E-score” value is reported as 0.067. For AAAAAGAT, the “PBM E-score” value was 0.0537. With AGGATGCG the “PBM E-score” value was -0.0569. For GTTCCGTA, the “PBM E-score” value was 0.117. For ACTAGAAG, the “PBM E-score” value was -0.196. For GTATACCA, the “PBM E-score” value was 0.0034. AAACACTA was tested, and the “PBM E-score” value was 0.0724. In the case of AAAAGGGA, the “PBM E-score” value is reported as -0.00461. With CCGAAGAC the “PBM E-score” value was -0.00487. For CGCGTTGA, the “PBM E-score” value was 0.0819. In the case of ATCCAGGC, the “PBM E-score” value is reported as 0.0212. For CTCTAGCC, the “PBM E-score” value was -0.283. For GGAAGCCC, the “PBM E-score” value was -0.0876. CGTAGAGA was tested, and the “PBM E-score” value was -0.00352. In the case of CTCGCCGC, the “PBM E-score” value is reported as 0.0721.
